This is an account of results in paper PMC11229306.

The target of the test is T1, Flag-USP8 (full-length) (UniProt P40818).
T1 sequence: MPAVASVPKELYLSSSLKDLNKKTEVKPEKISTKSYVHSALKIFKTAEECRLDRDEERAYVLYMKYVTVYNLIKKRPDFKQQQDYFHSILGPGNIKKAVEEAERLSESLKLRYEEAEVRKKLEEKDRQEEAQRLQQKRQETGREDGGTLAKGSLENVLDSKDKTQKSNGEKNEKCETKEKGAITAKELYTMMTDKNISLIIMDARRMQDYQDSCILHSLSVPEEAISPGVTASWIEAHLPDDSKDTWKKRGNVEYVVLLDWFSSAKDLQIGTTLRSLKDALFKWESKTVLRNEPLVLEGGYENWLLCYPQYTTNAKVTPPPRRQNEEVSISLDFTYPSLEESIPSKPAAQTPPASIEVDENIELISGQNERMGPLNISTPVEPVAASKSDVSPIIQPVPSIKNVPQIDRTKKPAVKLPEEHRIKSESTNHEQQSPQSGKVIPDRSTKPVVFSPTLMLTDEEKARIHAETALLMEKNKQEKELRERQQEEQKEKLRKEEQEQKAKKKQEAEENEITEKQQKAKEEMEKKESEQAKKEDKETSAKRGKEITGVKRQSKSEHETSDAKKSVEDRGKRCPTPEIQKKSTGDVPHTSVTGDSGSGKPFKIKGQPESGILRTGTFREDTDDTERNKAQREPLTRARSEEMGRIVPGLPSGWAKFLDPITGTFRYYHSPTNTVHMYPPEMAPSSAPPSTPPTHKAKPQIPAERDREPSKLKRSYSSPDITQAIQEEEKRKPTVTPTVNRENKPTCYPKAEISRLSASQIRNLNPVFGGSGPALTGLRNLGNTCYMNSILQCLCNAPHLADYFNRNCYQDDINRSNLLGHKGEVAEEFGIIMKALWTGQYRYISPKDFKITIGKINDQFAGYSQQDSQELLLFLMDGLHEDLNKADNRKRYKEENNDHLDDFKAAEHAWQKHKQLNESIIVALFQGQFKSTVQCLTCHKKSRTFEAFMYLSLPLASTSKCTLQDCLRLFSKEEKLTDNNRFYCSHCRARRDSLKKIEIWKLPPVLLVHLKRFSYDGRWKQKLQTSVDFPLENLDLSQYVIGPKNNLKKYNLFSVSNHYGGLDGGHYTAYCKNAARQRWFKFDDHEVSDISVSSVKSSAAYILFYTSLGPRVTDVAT
Description: co-IP; HEK293 cells transfected with Myc-OGT full-length or deletion mutants and 2 μg Flag-USP8, NP-40 lysis buffer after 24 h, Flag antibody for co-IP, Myc antibody for detection.

Results are given in words; binding and its absence hold for the method and conditions named. In cells and extracts the contact can be indirect. Binding calls can cover weak binding; strength is not graded here. Sequences can lack the tags named with a protein.

On to “OGT GT domain, Myc-tagged deletion mutant (domain or fragment)”, for which the binding entry is “binds”. With “OGT TPR domain, Myc-tagged deletion mutant (domain or fragment)”, the binding entry was “binds”.
